Consider 2 substances from PMC12235508.

Amino acid sequences for entries named in this document (tags omitted). A change or cut given only in a name is not applied to a line headed by its entry.
UniProt Q12888: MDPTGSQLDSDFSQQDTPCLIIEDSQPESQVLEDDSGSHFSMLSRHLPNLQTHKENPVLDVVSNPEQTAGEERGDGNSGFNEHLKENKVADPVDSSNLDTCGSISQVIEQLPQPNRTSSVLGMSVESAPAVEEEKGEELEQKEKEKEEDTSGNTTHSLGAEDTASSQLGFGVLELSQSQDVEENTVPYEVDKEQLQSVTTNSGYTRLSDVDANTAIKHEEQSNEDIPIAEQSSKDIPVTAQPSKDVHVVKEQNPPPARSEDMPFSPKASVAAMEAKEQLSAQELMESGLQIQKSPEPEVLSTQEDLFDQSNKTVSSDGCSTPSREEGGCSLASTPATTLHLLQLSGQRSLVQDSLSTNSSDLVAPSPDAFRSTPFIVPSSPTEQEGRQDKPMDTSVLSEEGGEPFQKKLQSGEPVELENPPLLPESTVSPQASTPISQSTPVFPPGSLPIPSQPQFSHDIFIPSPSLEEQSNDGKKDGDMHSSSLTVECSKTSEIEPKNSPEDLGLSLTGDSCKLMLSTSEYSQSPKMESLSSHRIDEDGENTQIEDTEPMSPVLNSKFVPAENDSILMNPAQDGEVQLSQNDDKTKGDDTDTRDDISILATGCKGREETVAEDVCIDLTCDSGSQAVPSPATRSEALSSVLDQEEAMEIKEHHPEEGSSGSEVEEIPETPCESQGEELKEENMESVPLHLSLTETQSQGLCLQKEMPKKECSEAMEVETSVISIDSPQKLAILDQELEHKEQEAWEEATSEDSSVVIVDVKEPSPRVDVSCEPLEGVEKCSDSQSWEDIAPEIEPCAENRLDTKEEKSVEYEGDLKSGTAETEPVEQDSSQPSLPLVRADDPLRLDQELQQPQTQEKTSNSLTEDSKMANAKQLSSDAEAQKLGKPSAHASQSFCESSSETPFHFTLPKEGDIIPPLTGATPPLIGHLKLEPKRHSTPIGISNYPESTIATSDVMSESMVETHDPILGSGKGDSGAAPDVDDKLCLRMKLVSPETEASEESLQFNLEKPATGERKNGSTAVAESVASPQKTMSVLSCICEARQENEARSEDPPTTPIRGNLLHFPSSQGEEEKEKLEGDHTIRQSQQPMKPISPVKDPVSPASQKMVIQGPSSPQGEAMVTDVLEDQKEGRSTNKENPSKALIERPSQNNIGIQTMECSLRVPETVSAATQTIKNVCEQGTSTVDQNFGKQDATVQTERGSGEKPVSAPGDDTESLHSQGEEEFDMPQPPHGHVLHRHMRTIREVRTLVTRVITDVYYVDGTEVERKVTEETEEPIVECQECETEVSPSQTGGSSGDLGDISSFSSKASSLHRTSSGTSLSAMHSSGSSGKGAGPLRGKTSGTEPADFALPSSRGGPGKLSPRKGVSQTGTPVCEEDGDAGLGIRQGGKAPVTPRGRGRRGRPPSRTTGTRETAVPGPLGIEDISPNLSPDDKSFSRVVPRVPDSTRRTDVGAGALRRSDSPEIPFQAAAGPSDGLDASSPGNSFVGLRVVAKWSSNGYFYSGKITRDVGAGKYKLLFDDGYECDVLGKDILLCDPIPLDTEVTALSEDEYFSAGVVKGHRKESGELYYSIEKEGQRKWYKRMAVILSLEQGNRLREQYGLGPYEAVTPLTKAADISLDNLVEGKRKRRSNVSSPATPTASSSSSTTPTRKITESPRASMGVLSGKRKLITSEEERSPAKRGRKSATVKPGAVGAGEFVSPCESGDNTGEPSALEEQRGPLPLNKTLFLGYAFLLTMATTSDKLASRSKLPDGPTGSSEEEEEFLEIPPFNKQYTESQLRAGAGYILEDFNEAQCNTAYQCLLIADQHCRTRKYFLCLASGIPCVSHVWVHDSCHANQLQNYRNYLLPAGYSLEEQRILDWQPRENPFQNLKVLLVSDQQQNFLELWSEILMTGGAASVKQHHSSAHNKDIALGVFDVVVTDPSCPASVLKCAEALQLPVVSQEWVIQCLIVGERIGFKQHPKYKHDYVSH
UniProt Q00987: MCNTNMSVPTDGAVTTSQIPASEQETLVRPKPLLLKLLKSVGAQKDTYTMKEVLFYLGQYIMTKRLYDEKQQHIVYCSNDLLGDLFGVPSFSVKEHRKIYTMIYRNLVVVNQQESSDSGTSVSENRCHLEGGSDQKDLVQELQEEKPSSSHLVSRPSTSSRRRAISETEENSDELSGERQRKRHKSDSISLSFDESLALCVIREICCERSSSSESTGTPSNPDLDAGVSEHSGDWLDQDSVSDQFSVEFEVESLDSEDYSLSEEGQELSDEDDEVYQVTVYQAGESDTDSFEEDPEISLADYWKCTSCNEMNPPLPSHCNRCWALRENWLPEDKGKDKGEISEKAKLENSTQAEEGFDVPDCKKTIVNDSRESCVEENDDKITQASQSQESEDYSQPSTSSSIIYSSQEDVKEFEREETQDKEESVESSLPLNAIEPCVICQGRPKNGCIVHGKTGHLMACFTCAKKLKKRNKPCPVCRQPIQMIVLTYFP
UniProt Q14676: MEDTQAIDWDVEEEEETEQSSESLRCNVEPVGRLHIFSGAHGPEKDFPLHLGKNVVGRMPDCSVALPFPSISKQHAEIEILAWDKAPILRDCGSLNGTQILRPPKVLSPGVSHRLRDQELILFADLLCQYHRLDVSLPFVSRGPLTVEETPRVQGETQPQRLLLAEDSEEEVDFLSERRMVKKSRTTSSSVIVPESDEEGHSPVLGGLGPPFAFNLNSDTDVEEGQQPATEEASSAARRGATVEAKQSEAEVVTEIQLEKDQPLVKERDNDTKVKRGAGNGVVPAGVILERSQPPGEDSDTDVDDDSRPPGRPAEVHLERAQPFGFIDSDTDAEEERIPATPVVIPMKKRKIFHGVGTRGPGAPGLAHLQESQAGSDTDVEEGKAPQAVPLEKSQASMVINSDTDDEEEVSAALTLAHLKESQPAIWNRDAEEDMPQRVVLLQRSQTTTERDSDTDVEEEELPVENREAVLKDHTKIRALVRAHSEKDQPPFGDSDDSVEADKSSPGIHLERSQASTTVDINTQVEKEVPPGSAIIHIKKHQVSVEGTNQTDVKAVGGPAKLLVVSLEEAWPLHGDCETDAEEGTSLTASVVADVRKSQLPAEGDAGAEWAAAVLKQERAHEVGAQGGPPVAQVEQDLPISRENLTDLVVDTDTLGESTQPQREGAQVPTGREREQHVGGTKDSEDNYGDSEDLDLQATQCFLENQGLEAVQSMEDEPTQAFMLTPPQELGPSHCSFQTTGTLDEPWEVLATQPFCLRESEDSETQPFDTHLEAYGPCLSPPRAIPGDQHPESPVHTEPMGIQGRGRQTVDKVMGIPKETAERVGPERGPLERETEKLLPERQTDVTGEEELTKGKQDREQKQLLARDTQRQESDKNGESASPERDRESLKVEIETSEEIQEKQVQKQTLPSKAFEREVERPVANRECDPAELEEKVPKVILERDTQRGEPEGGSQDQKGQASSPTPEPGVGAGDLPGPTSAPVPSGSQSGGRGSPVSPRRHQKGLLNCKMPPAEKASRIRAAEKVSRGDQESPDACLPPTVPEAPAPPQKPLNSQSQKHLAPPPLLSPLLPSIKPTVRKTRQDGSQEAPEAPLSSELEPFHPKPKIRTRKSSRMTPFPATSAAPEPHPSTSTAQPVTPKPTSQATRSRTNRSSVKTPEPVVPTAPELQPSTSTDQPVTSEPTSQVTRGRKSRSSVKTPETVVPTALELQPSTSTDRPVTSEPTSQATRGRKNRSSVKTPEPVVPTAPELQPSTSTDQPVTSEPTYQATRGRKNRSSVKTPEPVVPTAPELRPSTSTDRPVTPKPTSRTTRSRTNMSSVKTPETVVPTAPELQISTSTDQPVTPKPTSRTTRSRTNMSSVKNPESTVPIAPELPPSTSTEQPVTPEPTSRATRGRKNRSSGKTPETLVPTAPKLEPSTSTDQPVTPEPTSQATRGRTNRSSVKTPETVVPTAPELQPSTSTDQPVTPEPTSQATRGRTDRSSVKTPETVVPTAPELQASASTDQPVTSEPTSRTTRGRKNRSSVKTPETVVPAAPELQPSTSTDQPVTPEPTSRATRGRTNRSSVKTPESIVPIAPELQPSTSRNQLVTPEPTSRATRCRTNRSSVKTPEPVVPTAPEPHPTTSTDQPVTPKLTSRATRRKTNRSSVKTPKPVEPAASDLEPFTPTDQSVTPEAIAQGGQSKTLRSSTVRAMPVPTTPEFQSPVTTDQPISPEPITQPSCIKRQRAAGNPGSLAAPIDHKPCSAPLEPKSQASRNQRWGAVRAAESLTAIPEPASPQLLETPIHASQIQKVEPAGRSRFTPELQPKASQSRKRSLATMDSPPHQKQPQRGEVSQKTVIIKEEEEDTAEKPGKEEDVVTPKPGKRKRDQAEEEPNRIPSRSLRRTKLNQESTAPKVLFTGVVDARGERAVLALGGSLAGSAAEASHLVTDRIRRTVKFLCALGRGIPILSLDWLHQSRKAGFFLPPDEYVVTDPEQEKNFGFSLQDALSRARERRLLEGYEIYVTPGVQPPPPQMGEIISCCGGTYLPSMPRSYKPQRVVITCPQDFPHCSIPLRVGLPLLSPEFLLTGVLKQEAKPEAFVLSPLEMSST

These are yes or no findings as the source states them, for the method shown. In cells and extracts the contact can be indirect. Some entries that bind do so weakly or less than the wild type.

Assay [1] concerns the target p53 binding protein 1 (53BP1) (human (endogenous in T47D, MDA-MB-231, MDA-MB-468)) (UniProt Q12888). Briefly: proximity ligation; Duolink PLA on fixed, permeabilised T47D and MDA-MB-231 cells (vector control, shmdm2 and shmdmx derivatives); goat anti-53BP1, rabbit anti-p53, rabbit anti-MDC1, mouse anti-MDM2 4B2; foci per nucleus by confocal microscopy; also after 10 uM Nutlin 3a 24 h, 50 uM etoposide 2 h and 5 h, 10 uM ALRN-6924, 10 uM KU-55933 (ATMi), EdU labelling.

Assay [2] shares this target. Briefly: co-IP; 53BP1 precipitated with goat anti-53BP1 (PLA0303) on Protein G Mag Sepharose from T47D chromatin extract soluble made with benzonase and cathepsin L inhibitor, 4 h at 4°C; blot for 53BP1, MDC1, MDM2 and p53; IgG as control.
For assay [3] the target is unchanged. Briefly: proximity ligation; 53BP1–MDC1 PLA on T47D cell populations pre-extracted with cytoskeletal buffer (CSK) before fixation (Supplementary Fig. S3).

MDM2 (from UniProt Q00987 1-491): the binding result in assay [1] and in assay [2] was “binds” each time.

Take “mediator of dna damage checkpoint 1 (MDC1) (from UniProt Q14676 1-2089)”: the binding result in assay [2] and in assay [3] was “binds” throughout.
